Measurements: the supplement of paper PMC6331611
± gives the standard deviation of the averaged measurements. The full ranking holds about 1,600 compounds; the median of “normalized intracellular growth (luminescence, IQM-normalized) in RAW264.7 macrophages” is about 1, and the lowest 2% start at about 0.43. This is one part of the list.

Test system: Salmonella enterica serovar Typhimurium SL1344
Experiment: normalized intracellular growth (luminescence, IQM-normalized) in RAW264.7 macrophages (fraction of plate interquartile mean); higher = more bacterial growth (less inhibition)
Details: 10 µM

| Structure (SMILES) | normalized intracellular growth (time point: T3 (3 h)) | normalized intracellular growth (time point: Tfinal (~6 h)) |
| --- | --- | --- |
| O=C(CCCN1CCC(O)(c2ccc(Br)cc2)CC1)c1ccc(F)cc1 | 0.391 ± 0.23 | 1.28 ± 0.14 |
| CNCC[C@H](Oc1cccc2ccccc12)c1cccs1 | 0.92 ± 0.071 | 1.03 ± 0.18 |
| CC(=O)c1ccc2c(c1)N(CCCN1CCC(CCO)CC1)c1ccccc1S2 | 1 ± 0.047 | 1.16 ± 0.032 |
| CO[C@@]1(NC(=O)Cc2cccs2)C(=O)N2C(C(=O)O)=C(COC(N)=O)CS[C@@H]21 | 0.966 ± 0.025 | 0.984 ± 0.072 |
| COc1cc(Cc2cnc(N)nc2N)cc(OC)c1OC | 0.563 ± 0.068 | 0.155 ± 0.025 |
| CCN(CC)CCOC(=O)C(c1ccccc1)C1CCCCC1 (stereo not given) | 0.932 ± 0.011 | 1.06 ± 0.049 |
| COCC1=C(C(=O)OC(C)OC(=O)OC(C)C)N2C(=O)[C@@H](NC(=O)/C(=N\OC)c3csc(N)n3)[C@H]2SC1 (stereo not given in full) | 0.953 ± 0.066 | 1.06 ± 0.2 |
| CC[C@H]1OC(=O)[C@H](C)[C@@H](O[C@H]2C[C@@](C)(OC)[C@@H](O)[C@H](C)O2)[C@H](C)[C@@H](O[C@@H]2O[C@H](C)C[C@H](N(C)C)[C@H]2O)[C@](C)(OC)C[C@@H](C)C(=O)[C@H](C)[C@@H](O)[C@]1(C)O | 1.09 ± 0.015 | 0.976 ± 0.071 |
| CCCCC1=NC2(CCCC2)C(=O)N1Cc1ccc(-c2ccccc2-c2nnn[nH]2)cc1 | 1.06 ± 0.014 | 1.14 ± 0.22 |
| CCCCOC(=O)c1ccc(N)cc1 | 0.9693 ± 0.0086 | 0.953 ± 0.012 |
| O=C(Nc1ccc(C(=O)O)c(O)c1)c1ccccc1 | 1.03 ± 0.11 | 1.02 ± 0.065 |
| COc1ccc(Cc2cnc(N)nc2N)cc1OC | 0.784 ± 0.028 | 0.17 ± 0.021 |
| N=C(N)NC(=O)c1nc(Cl)c(N)nc1N | 0.952 ± 0.011 | 0.995 ± 0.062 |
| Cc1cc(C2CCCCC2)n(O)c(=O)c1 | 0.955 ± 0.034 | 0.916 ± 0.18 |
| S=C1SCN(Cc2ccccc2)CN1Cc1ccccc1 | 1.01 ± 0.087 | 0.779 ± 0.14 |
| NS(=O)(=O)c1cc(C(=O)O)c(NCc2ccco2)cc1Cl | 0.822 ± 0.066 | 0.971 ± 0.029 |
| O=C(O)c1cc(=O)c2ccccc2o1 | 0.979 ± 0.052 | 0.899 ± 0.18 |
| CCOC(=O)[C@H](CCc1ccccc1)N[C@@H](C)C(=O)N1[C@H](C(=O)O)C[C@@H]2CCC[C@@H]21 | 0.949 ± 0.12 | 0.922 ± 0.086 |
| NC(=O)c1ncn([C@@H]2O[C@H](CO)[C@@H](O)[C@H]2O)n1 | 1.022 ± 0.007 | 1.25 ± 0.14 |
| CC(C)COCC(CN(Cc1ccccc1)c1ccccc1)N1CCCC1 (stereo not given) | 0.89 ± 0.017 | 0.898 ± 0.077 |
| C=NC(C(=O)NC1C(=O)N2C1SC(C)(C)C2C(=O)O)c1ccccc1 (stereo not given) | 0.959 ± 0.021 | 1.04 ± 0.011 |
| CNS(=O)(=O)Cc1ccc2[nH]cc(CCN(C)C)c2c1 | 1.09 ± 0.054 | 1.09 ± 0.25 |
| O=C(CCCl)NCc1ccccc1 | 0.995 ± 0.01 | 1.01 ± 0.091 |

| Structure (SMILES) | normalized intracellular growth (time point: T3 (3 h)) | normalized intracellular growth (time point: Tfinal (~6 h)) |
| --- | --- | --- |
| CN[C@H](CC(C)C)C(=O)N[C@H]1C(=O)N[C@@H](CC(N)=O)C(=O)N[C@H]2C(=O)N[C@H]3C(=O)N[C@H](C(=O)N[C@H](C(=O)O)c4cc(O)cc(O)c4-c4cc3ccc4O)[C@H](O)c3ccc(c(Cl)c3)Oc3cc2cc(c3O[C@@H]2O[C@H](CO)[C@@H](O)[C@H](O)[C@H]2O[C@H]2C[C@](C)(N)[C@H](O)[C@H](C)O2)Oc2ccc(cc2Cl)[C@H]1O | 0.84 ± 0.079 | 0.897 ± 0.026 |
| NS(=O)(=O)c1cc2c(cc1Cl)N=CNS2(=O)=O | 1.03 ± 0.05 | 1.2 ± 0.073 |
| Clc1ccc(COC(Cn2ccnc2)c2ccc(Cl)cc2Cl)c(Cl)c1 (stereo not given) | 1.04 ± 0.03 | 1.06 ± 0.072 |
| Cc1cc(=O)n(-c2ccccc2)n1C | 1.004 ± 0.0089 | 1 ± 0.023 |
| CO[C@H]1O[C@@H]2O[C@@]3(C)CC[C@H]4[C@H](C)CC[C@@H]([C@H]1C)[C@@]24OO3 | 0.65 ± 0.034 | 0.747 ± 0.045 |
| NC12CC3CC(CC(C3)C1)C2 | 0.974 ± 0.046 | 0.891 ± 0.052 |
| CC1CCc2c(N3CCC(O)CC3)c(F)cc3c(=O)c(C(=O)O)cn1c23 (stereo not given) | 0.894 ± 0.051 | 0.0538 ± 0.029 |
| Nc1ncnc(Nc2ccc(Cl)cc2)n1 | 1.1 ± 0.074 | 0.945 ± 0.42 |
| CN1CCN(C2=Nc3cc(Cl)ccc3Nc3ccccc32)CC1 | 0.885 ± 0.036 | 1.01 ± 0.2 |
| CCCCCCCCCCCCCCCC(=O)NCCO | 1.01 ± 0.023 | 1.03 ± 0.05 |
| CN1CCc2cccc3c2[C@H]1Cc1ccc(O)c(O)c1-3 | 1.03 ± 0.022 | 0.988 ± 0.059 |
| CCC(Cc1c(I)cc(I)c(N)c1I)C(=O)O (stereo not given) | 0.932 ± 0.028 | 1.14 ± 0.18 |
| CCC(NC(C)C)C(O)c1ccc(O)c(O)c1 (stereo not given) | 1 ± 0.077 | 0.903 ± 0.25 |
| C[C@]12CC[C@@H]3c4ccc(O)cc4CC[C@H]3[C@@H]1CC[C@@H]2OC(=O)CCC1CCCC1 | 1.02 ± 0.018 | 1.3 ± 0.038 |
| C[C@@H]1[C@H](O)[C@@H](C)/C=C/C=C/C=C/C=C/C=C/C=C/C=C/[C@H](O[C@@H]2O[C@H](C)[C@@H](O)[C@H](N)[C@@H]2O)C[C@@H]2O[C@](O)(C[C@@H](O)C[C@@H](O)[C@H](O)CC[C@@H](O)C[C@@H](O)CC(=O)O[C@H]1C)C[C@H](O)[C@H]2C(=O)O | 1.007 ± 0.006 | 0.958 ± 0.044 |
| CO[C@@]1(NC(=O)CSCC#N)C(=O)N2C(C(=O)O)=C(CSc3nnnn3C)CS[C@@H]21 | 1.02 ± 0.046 | 0.808 ± 0.15 |
| CCOC(=O)C(C)(C)Oc1ccc(Cl)cc1 | 0.957 ± 0.034 | 0.724 ± 0.43 |
| CC(=O)N(O)CCCCCNC(=O)CCC(=O)N(O)CCCCCNC(=O)CCC(=O)N(O)CCCCCN | 1.01 ± 0.027 | 0.988 ± 0.037 |
| O=C1Cc2cc(CCN3CCN(c4nsc5ccccc45)CC3)c(Cl)cc2N1 | 0.927 ± 0.043 | 1.19 ± 0.14 |
| CC(C)/N=c1\cc2n(-c3ccc(Cl)cc3)c3ccccc3nc-2cc1Nc1ccc(Cl)cc1 | 1.05 ± 0.063 | 1.54 ± 0.12 |
| CN1CC(=O)NC1=N | 1.03 ± 0.02 | 1.1 ± 0.1 |
| CC(C)(C(=O)c1cccnc1)c1cccnc1 | 1.46 ± 0.13 | 0.858 ± 0.15 |

Some values from the list.
Entry of `Nc1ncnc(Nc2ccc(Cl)cc2)n1` under normalized intracellular growth (time point: T3 (3 h)): 1.1 ± 0.074
Entry of `Clc1ccc(COC(Cn2ccnc2)c2ccc(Cl)cc2Cl)c(Cl)c1` (stereo not given) under normalized intracellular growth (time point: T3 (3 h)): 1.04 ± 0.03
